The list is a part of this screen's results and no random one: it is rich in T/C values a quarter to a half above the control, in often repeated tests (any T/C) and in doses without a T/C. Other doses and runs of a compound stand elsewhere. T/C gives the treated animals as a percentage of the vehicle group. Schedules are NCI's codes, taken here to give the interval after Q, in days (D) or hours (H), and the number of doses after X. Some T/C values are negative: the treated tumours shrank. Some entries hold several experiments; their values stand side by side, smallest first. Some T/C values are followed by the survivors on the day toxicity was checked, most often the fifth; where none is given, no animal had died by that day. Some doses have a count of surviving animals in place of a T/C: the source files T/C as zero there, which appears to mark a toxic dose or a test without result, not a measured value. Counts of survivors are from the toxicity check (mostly the fifth day) where no day follows; animals may have died later.
System: MX-1 breast xenograft, nude mice, tumor weight T/C
Experiment: NCI In Vivo Anticancer Drug Screen. Data for tumor model Human Mammary Carcinoma MX-1 Xenograft (intrarenal inoculation) in NU/NU Swiss (nude) mice
Conditions: T/C endpoint: mean tumor weight change, higher T/C = larger tumour; for T/C: evaluated on day 11
How it was run: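 Mice carrying the implanted tumor receive either test agent or vehicle. Tumor size or survival is then recorded for both groups. Results are stated as the treated-to-control quotient.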

[1] = dose: 6.0 mg/kg/injection, schedule: Q04DX003 (sc), vehicle: saline with Tween-80

With CN(C)CCN1C(=O)c2cccc3cc([N+](=O)[O-])cc(c23)C1=O the survivor count (dose: 72.0 mg/kg/injection, schedule: Q04DX003 (sc), vehicle: saline with Tween-80) was 3 of 6 on day 11.
For CN(N=O)C(N)=O, the survivor count (dose: 25.0 mg/kg/injection, schedule: Q01DX010 (sc), vehicle: saline with Tween-80) was 1 of 2 on day 11, the survivor count (dose: 50.0 mg/kg/injection, schedule: Q01DX010 (sc), vehicle: saline with Tween-80) was 0 of 3 on day 11 and the survivor count (dose: 100.0 mg/kg/injection, schedule: Q01DX010 (sc), vehicle: saline with Tween-80) was 0 of 3 on day 11. For the same molecule, the survivor count (dose: 200.0 mg/kg/injection, schedule: Q04DX003 (sc), vehicle: saline with Tween-80) was 0 of 6 on day 11, the survivor count (dose: 200.0 mg/kg/injection, schedule: Q04DX003 (sc), vehicle: suspension in saline) was 0 of 3 on day 11 and the survivor count (dose: 400.0 mg/kg/injection, schedule: Q04DX003 (sc), vehicle: saline with Tween-80) was 0 of 6 on day 11.
O=CC(CO)CC(C=O)n1cnc2c(=O)[nH]cnc21 (stereo unspecified) was tested, and the survivor count (dose: 1200.0 mg/kg/injection, schedule: Q04DX003 (ip), vehicle: saline) was 0 of 6 on day 11.
In the case of C[CH2][Ge]([CH2]C)[CH2]C.C[CH2][Ge]([CH2]C)[CH2]C.C[CH2][Ge]([CH2]C)[O][Ge]([CH2]C)[CH2]C, the survivor count (dose: 600.0 mg/kg/injection, schedule: Q04DX003 (sc), vehicle: saline with Tween-80) is reported as 2 of 6 on day 11 and the survivor count (dose: 1200.0 mg/kg/injection, schedule: Q04DX003 (sc), vehicle: saline with Tween-80) is reported as 0 of 5 on day 11.
In the case of COc1c(CNC(=O)CCl)cc2[nH]c(C)cc2c1CNC(=O)CCl, the T/C (dose: 500.0 mg/kg/injection, schedule: Q04DX003 (sc), vehicle: Klucel (hydroxypropylcellulose) (HPC)) is reported as 137 % of control.
In the case of CN(C)C(=O)c1cccc(COc2ccc(N3C(N)=NC(N)=NC3(C)C)cc2Cl)c1, the survivor count (dose: 50.0 mg/kg/injection, schedule: Q01DX010 (sc), vehicle: saline) is reported as 1 of 2 on day 11.
In the case of C[N+](C)(C)c1ncnc2nc[nH]c12, the survivor count (dose: 200.0 mg/kg/injection, schedule: Q01DX010 (sc), vehicle: saline) is reported as 1 of 3 on day 11 and the survivor count (dose: 400.0 mg/kg/injection, schedule: Q01DX010 (sc), vehicle: saline) is reported as 0 of 3 on day 11.
CC[C@](O)(C(=O)O)c1cc2n(c(=O)c1CO)Cc1cc3ccccc3nc1-2 was tested, and the survivor count (dose: 128.0 mg/kg/injection, schedule: Q04DX003 (sc), vehicle: saline) was 2 of 6 on day 11.
In the case of N#CN=[N+]([O-])c1ccc(C(=O)O)cc1, the survivor count (dose: 90.0 mg/kg/injection, schedule: Q04DX003 (sc), vehicle: Klucel (hydroxypropylcellulose) (HPC)) is reported as 0 of 6 on day 11.
COC(C(=O)C(O)C(C)O)C1Cc2cc3cc(OC4CC(OC(C)=O)C(OC5CC(O)C(OC)C(C)O5)C(C)O4)cc(O)c3c(O)c2C(=O)C1OC1CC(OC2CC(OC3CC(C)(O)C(OC(=O)C(C)C)C(C)O3)C(O)C(C)O2)C(O)C(C)O1 (stereo unspecified) was tested, and the T/C (dose: 3.0 mg/kg/injection, schedule: Q04DX003 (sc), vehicle: saline with Tween-80) was -91, -71, -54, 12 % of control, the T/C [1] was -93 [4 of 6 alive on day 11] and -90 % of control [4 of 6 alive on day 11] and the survivor count [1] was 0 of 6 on day 11 and 2 of 6 on day 11. For the same molecule, the survivor count (dose: 12.0 mg/kg/injection, schedule: Q04DX003 (sc), vehicle: saline with Tween-80) was 0 of 6 on day 11 and the survivor count (dose: 24.0 mg/kg/injection, schedule: Q04DX003 (sc), vehicle: saline with Tween-80) was 0 of 6 on day 11.
For COC(=O)C(F)C(Br)C(=O)OC (stereo unspecified), the survivor count (dose: 150.0 mg/kg/injection, schedule: Q04DX003 (sc), vehicle: saline with Tween-80) was 0 of 6 on day 11.
For CC(=O)C[n+]1ccc(C)cc1Sc1ccccc1C, the survivor count (dose: 150.0 mg/kg/injection, schedule: Q04DX003 (ip), vehicle: saline with Tween-80) was 2 of 6 on day 11, the survivor count (dose: 300.0 mg/kg/injection, schedule: Q04DX003 (ip), vehicle: saline with Tween-80) was 1 of 6 on day 11 and the survivor count (dose: 600.0 mg/kg/injection, schedule: Q04DX003 (ip), vehicle: saline with Tween-80) was 0 of 6 on day 11. The survivor count (dose: 1200.0 mg/kg/injection, schedule: Q04DX003 (ip), vehicle: saline with Tween-80) was 0 of 6 on day 11.

— PubChem BioAssay AID296 (DTP/NCI, 2004)
